Some of the results follow.
compound: Nc1ccccc1NC(=O)c1ccc(CNC(=O)OCc2cccnc2)cc1 [entinostat]; assay: log2 fold change, soluble protein after heating vs DMSO (PISA); higher = thermal stabilisation; K562 cells, 10 uM, 30 min; active = over 0.2 and 3.5 SD of the protein, either way, in both replicates (recomputed)
Method in brief: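 K562 cells at 2×10^6 cells/mL were exposed to 10 μM compound for 30 min, then aliquots were heated for 3 min across 48°C-58°C, pooled, and extracted in PBS containing 0.5% NP-40 at 4°C. The supernatant after 21,000xg for 90 min was taken as soluble protein and measured by TMTpro 16plex LC-MS/MS with channel sums equalised. Thermal stability is reported relative to control samples, with values from duplicates. Fold changes are given on a log2 scale.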

Protein sequences, listed by entry. Tags and fused reporters are not part of them. Lines headed by an entry give the natural chain unless they say otherwise; changes in a name come on top.
UniProt Q676U5: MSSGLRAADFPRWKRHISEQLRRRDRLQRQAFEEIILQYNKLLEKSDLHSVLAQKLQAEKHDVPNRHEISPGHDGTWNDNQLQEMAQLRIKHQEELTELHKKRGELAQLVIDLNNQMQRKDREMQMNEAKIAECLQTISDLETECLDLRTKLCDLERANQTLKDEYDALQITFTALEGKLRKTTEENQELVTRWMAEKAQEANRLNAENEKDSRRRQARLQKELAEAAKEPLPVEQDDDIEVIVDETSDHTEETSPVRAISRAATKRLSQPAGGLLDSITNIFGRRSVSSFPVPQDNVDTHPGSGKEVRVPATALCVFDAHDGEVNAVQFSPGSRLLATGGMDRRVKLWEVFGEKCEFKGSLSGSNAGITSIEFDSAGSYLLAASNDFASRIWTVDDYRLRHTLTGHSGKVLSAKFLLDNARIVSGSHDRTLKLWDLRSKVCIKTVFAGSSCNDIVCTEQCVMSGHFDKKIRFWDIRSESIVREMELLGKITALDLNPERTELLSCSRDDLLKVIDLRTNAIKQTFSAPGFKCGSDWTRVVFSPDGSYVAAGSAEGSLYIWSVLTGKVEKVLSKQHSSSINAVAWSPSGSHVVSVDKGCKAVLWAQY
UniProt Q9H993: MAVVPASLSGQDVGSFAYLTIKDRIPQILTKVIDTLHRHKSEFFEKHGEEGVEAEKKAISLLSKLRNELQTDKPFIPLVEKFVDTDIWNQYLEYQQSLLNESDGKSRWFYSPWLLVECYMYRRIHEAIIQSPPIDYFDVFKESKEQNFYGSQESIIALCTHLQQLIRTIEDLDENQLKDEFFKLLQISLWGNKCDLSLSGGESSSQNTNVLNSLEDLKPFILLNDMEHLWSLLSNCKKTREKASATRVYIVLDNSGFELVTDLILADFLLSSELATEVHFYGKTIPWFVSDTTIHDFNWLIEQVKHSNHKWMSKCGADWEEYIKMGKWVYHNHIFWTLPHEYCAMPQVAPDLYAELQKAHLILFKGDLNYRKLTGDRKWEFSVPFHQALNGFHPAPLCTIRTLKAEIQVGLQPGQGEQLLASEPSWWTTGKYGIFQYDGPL
UniProt Q9NXU5: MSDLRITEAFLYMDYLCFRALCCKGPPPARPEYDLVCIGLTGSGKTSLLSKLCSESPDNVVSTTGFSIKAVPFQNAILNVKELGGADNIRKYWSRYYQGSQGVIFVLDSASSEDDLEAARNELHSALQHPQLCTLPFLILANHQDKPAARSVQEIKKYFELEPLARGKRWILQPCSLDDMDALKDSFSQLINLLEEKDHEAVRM
UniProt P25705: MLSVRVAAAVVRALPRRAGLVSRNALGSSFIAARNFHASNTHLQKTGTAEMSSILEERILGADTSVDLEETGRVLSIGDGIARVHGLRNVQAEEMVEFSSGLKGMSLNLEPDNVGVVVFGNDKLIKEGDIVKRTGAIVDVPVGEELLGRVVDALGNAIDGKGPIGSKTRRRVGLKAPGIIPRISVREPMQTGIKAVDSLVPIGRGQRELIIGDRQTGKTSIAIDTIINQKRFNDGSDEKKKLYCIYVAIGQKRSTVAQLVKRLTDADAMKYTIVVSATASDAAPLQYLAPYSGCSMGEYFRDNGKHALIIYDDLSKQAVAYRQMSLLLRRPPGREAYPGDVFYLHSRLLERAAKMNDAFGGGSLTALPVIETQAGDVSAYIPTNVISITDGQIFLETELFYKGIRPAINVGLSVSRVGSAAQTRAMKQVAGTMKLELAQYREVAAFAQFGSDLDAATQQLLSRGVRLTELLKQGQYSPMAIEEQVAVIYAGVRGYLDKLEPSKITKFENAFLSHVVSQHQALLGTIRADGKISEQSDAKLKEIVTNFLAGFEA
UniProt P21283, whole entry, looked up: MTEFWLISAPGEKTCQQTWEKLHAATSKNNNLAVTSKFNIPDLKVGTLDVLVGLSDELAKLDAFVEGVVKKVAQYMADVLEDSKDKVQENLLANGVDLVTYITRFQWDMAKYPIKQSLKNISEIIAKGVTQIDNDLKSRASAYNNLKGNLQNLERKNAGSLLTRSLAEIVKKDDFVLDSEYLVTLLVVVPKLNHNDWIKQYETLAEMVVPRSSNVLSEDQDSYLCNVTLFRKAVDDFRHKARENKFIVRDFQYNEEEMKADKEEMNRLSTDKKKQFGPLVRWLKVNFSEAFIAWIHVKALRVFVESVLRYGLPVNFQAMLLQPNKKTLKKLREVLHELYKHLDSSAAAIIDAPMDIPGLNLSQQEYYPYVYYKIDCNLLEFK
UniProt P14415, whole entry, looked up: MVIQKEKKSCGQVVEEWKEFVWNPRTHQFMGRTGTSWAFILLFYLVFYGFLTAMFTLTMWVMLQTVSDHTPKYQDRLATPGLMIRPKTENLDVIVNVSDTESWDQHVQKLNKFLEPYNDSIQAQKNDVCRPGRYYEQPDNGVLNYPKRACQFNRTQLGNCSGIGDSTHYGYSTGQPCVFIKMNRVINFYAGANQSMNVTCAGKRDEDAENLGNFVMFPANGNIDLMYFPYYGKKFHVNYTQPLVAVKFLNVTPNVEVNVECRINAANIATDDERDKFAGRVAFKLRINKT
UniProt O43681: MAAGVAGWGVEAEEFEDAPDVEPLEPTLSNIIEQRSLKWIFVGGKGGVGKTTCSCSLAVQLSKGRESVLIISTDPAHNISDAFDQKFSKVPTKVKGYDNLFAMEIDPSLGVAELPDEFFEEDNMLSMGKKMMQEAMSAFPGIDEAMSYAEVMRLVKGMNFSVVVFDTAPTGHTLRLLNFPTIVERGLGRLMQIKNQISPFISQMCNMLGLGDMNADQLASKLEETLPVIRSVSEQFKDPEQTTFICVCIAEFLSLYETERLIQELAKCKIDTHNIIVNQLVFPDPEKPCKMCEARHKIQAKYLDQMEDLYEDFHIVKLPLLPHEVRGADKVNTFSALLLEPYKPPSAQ
UniProt Q9ULH1: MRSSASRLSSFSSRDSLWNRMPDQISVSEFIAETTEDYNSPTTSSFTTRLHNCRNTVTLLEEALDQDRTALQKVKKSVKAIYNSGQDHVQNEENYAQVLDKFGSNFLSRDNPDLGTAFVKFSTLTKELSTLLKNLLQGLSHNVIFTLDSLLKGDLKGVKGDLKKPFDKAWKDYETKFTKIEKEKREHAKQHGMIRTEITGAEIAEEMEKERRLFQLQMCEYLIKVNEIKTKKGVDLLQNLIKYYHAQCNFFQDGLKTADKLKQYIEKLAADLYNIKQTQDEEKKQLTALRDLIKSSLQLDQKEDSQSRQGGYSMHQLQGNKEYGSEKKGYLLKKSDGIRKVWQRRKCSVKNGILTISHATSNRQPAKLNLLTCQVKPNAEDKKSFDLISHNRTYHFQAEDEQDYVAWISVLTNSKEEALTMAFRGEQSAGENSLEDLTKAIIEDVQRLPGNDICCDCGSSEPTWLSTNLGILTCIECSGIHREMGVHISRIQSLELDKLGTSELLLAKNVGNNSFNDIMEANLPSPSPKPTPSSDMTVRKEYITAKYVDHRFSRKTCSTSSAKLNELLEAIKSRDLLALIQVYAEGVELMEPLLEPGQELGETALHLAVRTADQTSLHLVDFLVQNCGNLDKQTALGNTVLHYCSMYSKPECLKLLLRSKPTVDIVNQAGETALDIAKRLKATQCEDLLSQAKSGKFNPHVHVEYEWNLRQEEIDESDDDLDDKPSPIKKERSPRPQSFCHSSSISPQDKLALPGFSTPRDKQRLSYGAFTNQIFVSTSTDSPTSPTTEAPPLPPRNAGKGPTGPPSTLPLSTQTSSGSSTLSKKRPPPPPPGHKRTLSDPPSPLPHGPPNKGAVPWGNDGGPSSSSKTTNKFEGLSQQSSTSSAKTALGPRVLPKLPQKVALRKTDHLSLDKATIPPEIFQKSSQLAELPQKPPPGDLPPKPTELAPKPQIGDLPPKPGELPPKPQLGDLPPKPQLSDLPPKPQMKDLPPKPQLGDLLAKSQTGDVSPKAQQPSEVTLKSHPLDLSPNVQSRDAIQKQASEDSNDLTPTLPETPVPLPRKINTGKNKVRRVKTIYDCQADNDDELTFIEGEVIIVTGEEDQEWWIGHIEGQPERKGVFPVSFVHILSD
UniProt Q9Y294, whole entry, looked up: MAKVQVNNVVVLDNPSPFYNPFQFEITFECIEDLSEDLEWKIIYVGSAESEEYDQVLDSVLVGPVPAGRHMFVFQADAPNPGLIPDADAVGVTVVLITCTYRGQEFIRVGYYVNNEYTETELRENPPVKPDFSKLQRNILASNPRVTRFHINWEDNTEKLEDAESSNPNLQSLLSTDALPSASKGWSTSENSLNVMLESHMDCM
UniProt Q8IUR7, whole entry, looked up: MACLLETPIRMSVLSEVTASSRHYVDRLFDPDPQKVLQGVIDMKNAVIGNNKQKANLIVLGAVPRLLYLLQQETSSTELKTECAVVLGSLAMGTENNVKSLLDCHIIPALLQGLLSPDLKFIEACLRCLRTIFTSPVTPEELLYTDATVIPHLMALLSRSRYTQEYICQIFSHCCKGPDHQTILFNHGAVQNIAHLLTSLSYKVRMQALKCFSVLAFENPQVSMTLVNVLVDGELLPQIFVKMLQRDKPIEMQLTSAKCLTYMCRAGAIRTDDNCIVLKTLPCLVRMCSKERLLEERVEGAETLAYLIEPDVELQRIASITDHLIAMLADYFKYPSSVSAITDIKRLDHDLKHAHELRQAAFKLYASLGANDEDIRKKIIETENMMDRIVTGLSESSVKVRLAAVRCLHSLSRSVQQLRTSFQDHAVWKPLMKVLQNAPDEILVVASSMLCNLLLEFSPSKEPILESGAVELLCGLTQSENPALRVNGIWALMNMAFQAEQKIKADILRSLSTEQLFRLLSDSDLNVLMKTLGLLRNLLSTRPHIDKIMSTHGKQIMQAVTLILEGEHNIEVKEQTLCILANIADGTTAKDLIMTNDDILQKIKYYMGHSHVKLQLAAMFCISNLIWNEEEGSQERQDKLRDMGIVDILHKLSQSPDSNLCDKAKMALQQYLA
UniProt P31939: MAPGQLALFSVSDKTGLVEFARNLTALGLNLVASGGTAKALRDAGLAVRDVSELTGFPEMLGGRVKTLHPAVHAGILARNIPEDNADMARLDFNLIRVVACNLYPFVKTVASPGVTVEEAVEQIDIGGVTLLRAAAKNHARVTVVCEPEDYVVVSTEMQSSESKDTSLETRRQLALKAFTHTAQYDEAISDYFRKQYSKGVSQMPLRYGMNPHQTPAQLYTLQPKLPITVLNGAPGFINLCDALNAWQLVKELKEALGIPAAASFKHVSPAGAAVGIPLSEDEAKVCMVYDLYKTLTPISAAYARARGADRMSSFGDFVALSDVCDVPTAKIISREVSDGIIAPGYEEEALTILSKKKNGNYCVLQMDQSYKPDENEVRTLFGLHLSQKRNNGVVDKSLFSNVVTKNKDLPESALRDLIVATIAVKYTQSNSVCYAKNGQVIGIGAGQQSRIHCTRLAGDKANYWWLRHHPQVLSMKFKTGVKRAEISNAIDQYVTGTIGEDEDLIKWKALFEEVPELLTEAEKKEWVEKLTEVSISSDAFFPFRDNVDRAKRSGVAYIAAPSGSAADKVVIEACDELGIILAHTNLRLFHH
UniProt Q9UBL3, whole entry, looked up: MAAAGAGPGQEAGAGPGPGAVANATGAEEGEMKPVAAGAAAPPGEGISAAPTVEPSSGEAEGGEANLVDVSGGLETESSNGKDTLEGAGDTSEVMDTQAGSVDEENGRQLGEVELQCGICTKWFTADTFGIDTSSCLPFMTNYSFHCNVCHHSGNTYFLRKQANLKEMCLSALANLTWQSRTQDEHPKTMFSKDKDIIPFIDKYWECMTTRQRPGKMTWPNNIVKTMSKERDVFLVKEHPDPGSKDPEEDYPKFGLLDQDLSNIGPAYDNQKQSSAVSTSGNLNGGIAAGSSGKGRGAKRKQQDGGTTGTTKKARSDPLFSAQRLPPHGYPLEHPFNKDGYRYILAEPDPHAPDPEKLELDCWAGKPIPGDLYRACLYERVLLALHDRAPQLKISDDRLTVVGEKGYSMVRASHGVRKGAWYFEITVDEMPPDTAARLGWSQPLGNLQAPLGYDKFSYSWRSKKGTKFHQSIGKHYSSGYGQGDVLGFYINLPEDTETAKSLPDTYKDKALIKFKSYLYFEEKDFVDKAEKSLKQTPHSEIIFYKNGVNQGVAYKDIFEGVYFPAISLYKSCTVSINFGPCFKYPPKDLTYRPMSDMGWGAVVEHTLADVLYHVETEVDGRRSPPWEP
UniProt P00966: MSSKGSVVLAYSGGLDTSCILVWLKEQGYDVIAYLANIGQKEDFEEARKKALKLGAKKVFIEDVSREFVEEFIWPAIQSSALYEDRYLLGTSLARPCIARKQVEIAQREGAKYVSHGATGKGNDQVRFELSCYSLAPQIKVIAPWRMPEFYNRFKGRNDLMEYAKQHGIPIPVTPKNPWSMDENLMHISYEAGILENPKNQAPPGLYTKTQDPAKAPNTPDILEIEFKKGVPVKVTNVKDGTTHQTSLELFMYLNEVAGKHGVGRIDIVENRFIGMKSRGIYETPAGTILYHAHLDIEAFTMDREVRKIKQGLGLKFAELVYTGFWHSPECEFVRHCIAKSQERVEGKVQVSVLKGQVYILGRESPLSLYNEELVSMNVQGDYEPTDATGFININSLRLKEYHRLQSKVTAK
UniProt P56134: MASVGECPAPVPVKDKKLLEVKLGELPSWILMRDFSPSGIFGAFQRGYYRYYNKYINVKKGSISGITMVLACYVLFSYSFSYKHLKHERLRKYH

Row | Target | log2 fold change
1 | ATG9A (UniProt Q7Z3C6) | inactive: 0.008
2 | ASPH (UniProt Q12797) | inactive: -0.041
3 | ATG16L1 (UniProt Q676U5) | inactive: -0.044
4 | ARPC1B (UniProt O15143) | inactive: 0.012
5 | ARPC4 isoform 3 (UniProt P59998) | inactive: -0.002
6 | ATP7B (UniProt P35670) | inactive: -0.003
7 | ARMT1 (UniProt Q9H993) | inactive: 0.188
8 | ATOX1 (UniProt O00244) | inactive: 0.081
9 | ATP5MPL (UniProt P56378) | inactive: -0.004
10 | ATG2A isoform 3 (UniProt Q2TAZ0) | inactive: -0.021
11 | ARL15 (UniProt Q9NXU5) | inactive: 0.003
12 | ATP5F1A (UniProt P25705) | inactive: -0.033
13 | ATG2B (UniProt Q96BY7) | inactive: -0.03
14 | ARL2 (UniProt P36404) | inactive: -0.014
15 | ATP6V1C1 (UniProt P21283) | inactive: 0.062
16 | ATP2A2 (UniProt P16615) | inactive: 0.001
17 | ATP6V1B2 (UniProt P21281) | inactive: -0.003
18 | ATP6V0A1 isoform 3 (UniProt Q93050) | inactive: 0.083
19 | ARPC5 (UniProt O15511) | inactive: -0.054
20 | ATP1B2 (UniProt P14415) | inactive: -0.049

Already shown: an excerpt of the list.
Row | Target | log2 fold change
12 | ATP5F1A (UniProt P25705) | inactive: -0.033
13 | ATG2B (UniProt Q96BY7) | inactive: -0.03

The results go on.

Row | Target | log2 fold change
21 | ASNA1 (UniProt O43681) | inactive: 0.003
22 | ATP2A3 isoform 2 (UniProt Q93084) | inactive: 0.035
23 | ASAP1 isoform 2 (UniProt Q9ULH1) | inactive: 0.063
24 | ATP11C (UniProt Q8NB49) | inactive: -0.038
25 | ASF1A (UniProt Q9Y294) | inactive: 0.057
26 | ATM (UniProt Q13315) | inactive: -0.01
27 | ARMC8 (UniProt Q8IUR7) | inactive: -0.031
28 | ATG13 isoform 5 (UniProt O75143) | inactive: -0.01
29 | ATIC (UniProt P31939) | inactive: -0.019
30 | ARPP19 (UniProt P56211) | inactive: 0.027
31 | ATG4B isoform 2 (UniProt Q9Y4P1) | inactive: 0.154
32 | ASH2L (UniProt Q9UBL3) | inactive: 0.025
33 | ASS1 (UniProt P00966) | inactive: 0.096
34 | ARL13B (UniProt Q3SXY8) | inactive: 0.015
35 | ASAH1 isoform 2 (UniProt Q13510) | inactive: 0.019
36 | ATP6V1F isoform 2 (UniProt Q16864) | inactive: 0.087
37 | ATP5MF (UniProt P56134) | inactive: -0.027
38 | ATP5F1E (UniProt P56381) | inactive: 0.003
39 | ATP7A isoform 3 (UniProt Q04656) | inactive: 0.006

Reference: the supplement of paper PMC10849652
